Among the data in PMC7819943, “Rice protein-binding microarrays: a tool to detect cis-acting elements near promoter regions in rice” are binding signal values, retold here.

The list shows a part of the results.

The target of this assay is T1, OsSMF1 (Oryza sativa, UniProt Q6ZLB0 1-436).
T1 sequence: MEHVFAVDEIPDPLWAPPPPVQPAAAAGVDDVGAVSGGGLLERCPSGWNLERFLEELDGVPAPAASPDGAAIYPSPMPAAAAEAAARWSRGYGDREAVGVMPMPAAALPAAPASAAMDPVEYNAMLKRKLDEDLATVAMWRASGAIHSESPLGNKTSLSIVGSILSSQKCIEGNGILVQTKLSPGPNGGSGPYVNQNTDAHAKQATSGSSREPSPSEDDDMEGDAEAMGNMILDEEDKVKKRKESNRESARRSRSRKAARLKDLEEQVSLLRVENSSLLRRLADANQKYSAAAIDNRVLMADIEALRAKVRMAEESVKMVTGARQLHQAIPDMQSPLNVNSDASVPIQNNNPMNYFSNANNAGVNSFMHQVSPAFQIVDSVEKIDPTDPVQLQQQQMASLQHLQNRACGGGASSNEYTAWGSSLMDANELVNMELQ
The assay is described as follows: protein-binding microarray (RPBM); PBS, 2% BSA, 51.3 ng/ul salmon testes DNA, 50 uM zinc acetate, 200 nM TF, 25 C, 1 h; high values mean tight binding. Conditions: protein: recombinant; tags: N-terminal polyhistidine and DsRed monomer fusion (pET32a); chain copies: 2; label: CyDye5-dUTP incorporated in the synthesized complementary strand; 3' TTTTT single-stranded linker to array surface; dsDNA, one strand shown. Summed up: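 The binding signal is fluorescence intensity per feature, in arbitrary units, read on an Axon 4000B scanner. Polyhistidine- and DsRed-tagged transcription factors (N-terminal fusions) from E. coli BL21-CodonPlus were purified on Ni–NTA and applied at 200 nM for 1 h at 25 °C to a double-stranded, BSA-blocked custom Agilent array in buffer with 50 µM zinc acetate.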
For the sequence “CACCGCGCCTACGTGGCGTGGCTCGCCTTCCGCATCGACTCGGAGTCACCTAGTGCAG”, the binding signal is 24900 fluorescence intensity (a.u.).
With “GTCCGCGCGCACAGGTAAGGATCCGATTCCGCTCATGAGCCGGAGTCACCTAGTGCAG”, the binding signal was 3770 fluorescence intensity (a.u.).
In the case of “TAATCTGTTTCCGAACTGATTCCACACTGACTCCGCACCACGGAGTCACCTAGTGCAG”, the binding signal was 3700 fluorescence intensity (a.u.).
The value for “GGAAGGGGCTACTATAATCAGTGTGCAGTAGAAAATGACTCGGAGTCACCTAGTGCAG” was 3910 fluorescence intensity (a.u.); that for “CTCCATTCAGACTGAAGGTAGCACATTTGCGGTCGTGTCGCGGAGTCACCTAGTGCAG” was 3650 fluorescence intensity (a.u.); that for “CCTACCTGGCTTTCAGCTAATCAGCCACCTACCAAATAATCGGAGTCACCTAGTGCAG” was 31200 fluorescence intensity (a.u.).
For the sequence “CTCTGTGGTCACGCCCCACACCGGCAGCCGCGTCCTCCGTCGGAGTCACCTAGTGCAG”, the binding signal was 3560 fluorescence intensity (a.u.).
The value for “GATTCTGTTCACCTGCGTGCACAGGTGTACGGGACGAGCACGGAGTCACCTAGTGCAG” was 5870 fluorescence intensity (a.u.).
As for “AAAGTCAGAGGAGCCTCGTCCAAGTACTACCACTAGCATGCGGAGTCACCTAGTGCAG”, the figure is 3150 fluorescence intensity (a.u.); as for “TGAGATGGCAGTAGCAGGTACTATGGAGATTTCTCGTTCACGGAGTCACCTAGTGCAG”, 19000 fluorescence intensity (a.u.).
On to “CCCACGGCCGCCACGCCACTGCCAGTCAACAGCTGCACCTCGGAGTCACCTAGTGCAG”, for which the binding signal is 7740 fluorescence intensity (a.u.).
As to “TAGTTCTGAAGTCTGAAATCCTTGCGGTCCTTCACCGCCTCGGAGTCACCTAGTGCAG”, the binding signal was 55000 fluorescence intensity (a.u.).
Take “GCTTGCCGCCGTCACAGAGTCACACACACCCTGTCGAGCGCGGAGTCACCTAGTGCAG”: the binding signal is 4600 fluorescence intensity (a.u.).
On to “CCCGGCTTTGCCGGCGGCGGCGAGGCTGGGGAGGGGAGGACGGAGTCACCTAGTGCAG”, for which the binding signal was 3410 fluorescence intensity (a.u.).
Consider “GTATCAAAGATCAAGTACGGAGTTGGATGACGTGAATGCTCGGAGTCACCTAGTGCAG”, for which the binding signal was 4650 fluorescence intensity (a.u.).
On to “TCCTCCCTCACGTCGTCGCCATTACGCCTGACACGCTCCACGGAGTCACCTAGTGCAG”, for which the binding signal was 4380 fluorescence intensity (a.u.).
Take “GGGAACCCTTCATGCAGCAACATGATCGAACCACGTCTTCCGGAGTCACCTAGTGCAG”: the binding signal is 3810 fluorescence intensity (a.u.).
Turning to “CTTTCCCTCCGAATTGCTTATCATCTGCATGCATGATGCACGGAGTCACCTAGTGCAG”, the binding signal is 3590 fluorescence intensity (a.u.).
As for “CAGAAACAATCAATATAAATCTCTTCCTTATAATTATAATCGGAGTCACCTAGTGCAG”, the binding signal was 15100 fluorescence intensity (a.u.).
As to “AGCAGCAGCAGCTTGCCTGAGCTGAGCTGACAGATCAGTCCGGAGTCACCTAGTGCAG”, the binding signal was 3490 fluorescence intensity (a.u.).
The value for “CAATCTTTATCCCGTCATCCACCTCATTGTTCTTACCCAACGGAGTCACCTAGTGCAG” was 6130 fluorescence intensity (a.u.).
Take “CCGCCTAGTGGCATCCCGCCGCATCAGCTCGGCGAGCTCGCGGAGTCACCTAGTGCAG”: the binding signal was 3340 fluorescence intensity (a.u.).
“ATGATGATTGTTAGTGGATGATGATGTGTCATCTTGTTAACGGAGTCACCTAGTGCAG”: the binding signal is 8460 fluorescence intensity (a.u.).
As to “CAATCAGTACAGACATCCTCGGTGTCGTTTTCAAAAGTCTCGGAGTCACCTAGTGCAG”, the binding signal was 3270 fluorescence intensity (a.u.).
As for “TTAATCCCGGTTTTGTCCTACGTGGCTGCTAAGTCAGCGTCGGAGTCACCTAGTGCAG”, the figure is 29900 fluorescence intensity (a.u.).
Take “AGCTCGTAGTGGAGTGAACGAGTGATGTGGAACAGGTAGGCGGAGTCACCTAGTGCAG”: the binding signal is 3570 fluorescence intensity (a.u.).
On to “AGTTGTGGCAGCCACAAAATTGTGGTGGACAAATTTCTAGCGGAGTCACCTAGTGCAG”, for which the binding signal is 3720 fluorescence intensity (a.u.).
In the case of “TTCGAGGCAGCGTATAGCATCGTGGCACGCAGAAGCTTGGCGGAGTCACCTAGTGCAG”, the binding signal was 3950 fluorescence intensity (a.u.).
As to “GATCGTCGCGTCGTCGGCGTTGGCATCGGCATCCATGTGCCGGAGTCACCTAGTGCAG”, the binding signal is 3830 fluorescence intensity (a.u.).
For the sequence “TTAAGGTGTGTTTAGTTCCACGTCAAAATTAGAAGTTTGACGGAGTCACCTAGTGCAG”, the binding signal is 7090 fluorescence intensity (a.u.).
Consider “TTGCGCTTCGTCGACAGTTTCGCGGCCACGTTGTCCAAGGCGGAGTCACCTAGTGCAG”, for which the binding signal was 4890 fluorescence intensity (a.u.).
With “CAAGCAAGTTTAGCGTCGCGCGCGCTCGTGACGAGTCGTGCGGAGTCACCTAGTGCAG”, the binding signal is 4280 fluorescence intensity (a.u.).
As for “CCGGCAAAAGTCTCTCCATCTTGTCATCGTCTTCTCCAGCCGGAGTCACCTAGTGCAG”, the figure is 4700 fluorescence intensity (a.u.).
Regarding “TGATGGATACCCAAATATCCAATGCGTCCTCAAGTCCATGCGGAGTCACCTAGTGCAG”, the binding signal is 3780 fluorescence intensity (a.u.).
As for “TCATTGACTCATGTGGGTCCTACGTGTCATTGAGATACCGCGGAGTCACCTAGTGCAG”, the binding signal was 12300 fluorescence intensity (a.u.).
“GACTCGCGCGCGGCGAGCGACACGCGGCCGGCTGCGCGGGCGGAGTCACCTAGTGCAG”: the binding signal is 3140 fluorescence intensity (a.u.).
The value for “GATGGAGGATGGGCGAGAGCGAGCAGTTACCGCGTGCAGGCGGAGTCACCTAGTGCAG” was 4520 fluorescence intensity (a.u.); that for “CGGGGAATGCCATTGCCACCGCGTCACCCGTTGTTCGGATCGGAGTCACCTAGTGCAG” was 5920 fluorescence intensity (a.u.); that for “AAGCTGTTCAACGTTCTGATGCGTGACCTTGTCAGATTGGCGGAGTCACCTAGTGCAG” was 3640 fluorescence intensity (a.u.).
Take “AGATGCCGCCTTCGTCTCCTCGCCGACGTCACCGCCACCCCGGAGTCACCTAGTGCAG”: the binding signal is 8260 fluorescence intensity (a.u.).
Take “AAAAGCTCGTGACTCGTTAGCTCGCTCGGTTCGTGTCTGGCGGAGTCACCTAGTGCAG”: the binding signal is 3420 fluorescence intensity (a.u.).
With “GTTCGTCCCCAACGCCACGCCGCCACCAACCGCGCCGCCCCGGAGTCACCTAGTGCAG”, the binding signal was 4580 fluorescence intensity (a.u.).
Consider “AGCAGCATGATTAGTACAGCACACCTTTGCGGATCCAATGCGGAGTCACCTAGTGCAG”, for which the binding signal was 3570 fluorescence intensity (a.u.).
The value for “TCTAGCATGTCATTCGGTATATGCTAAGTCAGCCAAAGTGCGGAGTCACCTAGTGCAG” was 3620 fluorescence intensity (a.u.).
The value for “CGCTGCCGCTGCCGTGGTCCTACGTCCTGCGCCGCCGCTGCGGAGTCACCTAGTGCAG” was 4000 fluorescence intensity (a.u.); that for “GTGCACCACCGCACACGGATCCACCTCCTGTCTCGTCGCACGGAGTCACCTAGTGCAG” was 27400 fluorescence intensity (a.u.); that for “CACTCCCGTAACCGATTCGCTTTCACACGACACCGCGACGCGGAGTCACCTAGTGCAG” was 3180 fluorescence intensity (a.u.).
Regarding “GCTCCTCTCGTGTCGTCTTCACCAAAGCGAACTCCTCACTCGGAGTCACCTAGTGCAG”, the binding signal is 3350 fluorescence intensity (a.u.).
For “CTCAACCTATTGTGTGGATCCGGACCCTCATATTATCCATCGGAGTCACCTAGTGCAG”, the binding signal is 4110 fluorescence intensity (a.u.).
With “TCTAGACAATCAAGCCGCTAGAAGTTTCATAGAGTGGTAGCGGAGTCACCTAGTGCAG”, the binding signal is 7160 fluorescence intensity (a.u.).
“CTCTCTTTCTCGCAGCCGCACGCGCGGAGGCCGATTCGGCCGGAGTCACCTAGTGCAG”: the binding signal is 3290 fluorescence intensity (a.u.).
Consider “ATATATATATATATATATATATTGATGATTTAATGAAACTCGGAGTCACCTAGTGCAG”, for which the binding signal was 14200 fluorescence intensity (a.u.).
The value for “TCTGTTAGTCTCTGCCACGAACGCACGAGCACTGCATCTCCGGAGTCACCTAGTGCAG” was 4160 fluorescence intensity (a.u.); that for “GCTCGTTGGAACGTTCGTTGCGGACGCACGCGCTACGAGCCGGAGTCACCTAGTGCAG” was 3290 fluorescence intensity (a.u.).
